In article PMC7446811:
No constants are given. Whether binding was seen depends on the method and setting. In cells and extracts the contact can be indirect. Binding can be weak; no strength is given.

Biological target: glutathione S-transferase-tagged LsTUB (GST-TUB) (Laodelphax striatellus)
Assay: pull-down; GST-LsTUB (500 μg) with glutathione-Sepharose beads and viruliferous SBPH extract (1 mg) in 50 mM Tris, 150 mM NaCl, 0.1% Triton X-100, pH 8.0, 4°C, 16 h; blot with anti-NS3 and anti-GST; only the target purified

B1: RSV NS3 in extracts of viruliferous SBPH (protein, UniProt P26658 1-211)
chain: MNVFTSSVGSVEFDHPLLLENDLTSLSINCDDVHCSSRALCYIYDIHSSRHPSIDEHQFLRLLHGPDDAVTLGSFLKTLIWILSHDKNLPEEYRLPTIMMSSSYVKFFTEVKPRPPSTNCWTCRMSKDNLPFTVPSVKGFPPDAELYIVPISDHDGKPVKFDNRKTLYRSPSKKRHKYVISSDKPPLSARYVKYVDSSALESLPGSSPAVL
binding: binds
